# Reference: publication PMC3675359, “GxcC connects Rap and Rac signaling during Dictyostelium development” (BMC Cell Biology, 2013)
# Protein sequences, listed by entry. Tags and fused reporters are not part of them.
# UniProt P18613: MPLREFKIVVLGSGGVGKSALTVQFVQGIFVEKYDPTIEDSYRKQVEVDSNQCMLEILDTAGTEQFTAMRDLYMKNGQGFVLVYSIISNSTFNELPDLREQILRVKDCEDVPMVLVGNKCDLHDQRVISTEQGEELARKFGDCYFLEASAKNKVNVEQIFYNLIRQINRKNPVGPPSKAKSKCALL
# Biological target: GST-RapA fusion protein preloaded with GppNHp (Dictyostelium discoideum) (UniProt P18613)
# Experiment: affinity purification with mass spectrometry; 3-5 mg purified GST-RapA preloaded with GppNHp prebound to a GSH column; lysate of vegetative Dictyostelium cells circulated overnight; eluted with glutathione; LC-MS/MS; only the target purified
binder,measurement,value
"GxcC (Guanine eXchange factor for raC) (protein, UniProt Q54P24 1-1215) MPIQFDAGLEQQVNQFLGDVDDFLTVKTGTTVDKLKSLLNCEEKSISYNAIAFLAFANQAAVNKDASREAGLIKLFLEFCHPSKIITVLPMVKHASMGLMFLANHSDENKKEIGDLKGIDTIFELLRDLLVMIKSPPEDVKKEDIVSSISQSLNLVIFLASLQSNREVMGTVQNFLVLNSLLAYENPQSLDLQLQIQEKALSATNNICMHKENKENCRVAGCIENVLKLLKSTKPSIQDSSLRMLYNMTITDANREAIRRCKGLETLASMLSGQAEALTLLSLKALSNMAVDRQTIEYAVANQESVLQPIYGVFPSSYGQGCSDALLDQVLTVIQNLVSEENLIDTVAKSGIIAKLVGATKGMPLTNTTHQSILVKASCIISALITIEEVQQAAVEQGVITLLVEMIQLPSAEVRREAARALANATPYYDDVRAEIGAQGGVKLCVDLLLQADKELVKQAARALVNLARNTHNEEKLYESKGLEHSIRLINSPEKDLKMLGTKLLVNLSLNEQARIAFCQKGGLSIVVQLLTSSDPELQLQGTKIATNLAISGRNRKVMNEQAPDLIPALKALVNSSVSDIKLQSEVSLNNLAFPYEASYEGLDQMEDAMPIFMQSSQYERDDDDEDDEDEAEKDERRRQEEEELRLAAEKEVEERKRIMQEEVKRIEERRKAEHEKRLQEEQELRQKKEEAEKLRLAQEAMEKLRLEQEAAAAAEAEKIRLAEEQRIIKEKEVAEQERIKQLTEQQKQKEEEEAKIALEKAKKEEAERLEKAEALRLQKEQEERIRKEKEIEAERLRVQEEERLAKERQAEEDRMRAVEEEKLKLMEAEIKQREEDIRRQKIEEEERRKREEQEKKLKDQQDKASQESARLAQEAARAQKRTHIVQEIMQVEVNYVKNLTLMVRKFLHPLAQLSTSKRPLLTPDRITQIFSTIENIQNHNSIFSDGLTSRIKRWLADNKKDHLIIGDIFQKIGGFMQDYSKYINNYNQSIKTYNETKKTNLPFAQFIKKVESDPELNDRELENLLITPVQQLPRYIMLIQDLIRNTHDDHPDYKPLTEALDKIKHITTIINEKKRDAEDAFAMLQIHQQVHGKVPNNFVTPHRKFIREGAVHFGSSSGSFKDKDPIVFLFNDMVMMTIKHPNKPNEYKYRYSCQFSTTTTIEELPSVNNGFIIKSNQWWSFSCSTPQEKTSWMETIQKSLTNLPKESKVLTSKK",binding,binds

# Results are given in words; binding and its absence hold for the method and conditions named. In cells and extracts the contact can be indirect. A yes stands for co-enrichment or nearness to the bait. Other partners may have been found.
